Test [1] has as its system Danio rerio larva rod photoreceptor outer segment. As to the kind of experiment: rod outer segment growth distance Dg, difference from same-week DMSO control mean; higher = more outer segment growth. Conditions: 20 µM; treatment time: 4 days (6-10 dpf).
The test system is the same in test [2]. In words: rod outer segment shedding distance Ds, difference from same-week DMSO control mean; higher = less outer segment shedding. Conditions: 20 µM; treatment time: 4 days (6-10 dpf).

Counter-ions that a name gives are not always drawn. ± gives the uncertainty stated by the source. This is one part of the list. Baselines shift from plate to plate; read single values as rough.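 Larvae carried a heat-shock-induced fluorescent stripe in rod outer segments, set at 6 dpf; the shedding distance runs from this stripe to the outer segment tip, measured in confocal stacks, about three fish per compound. The controls got 0.2% DMSO vehicle, and the paper flagged compounds with at least a 20% change against the same-week control and p < 0.001 (Dunnett test on mixed-effects models).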

Take `O=c1c(-c2ccc(O)cc2)coc2cc(O)cc(O)c12` [Genistein]: in test [1], the “rod outer segment growth distance Dg” value worked out at 0.5 ± 0.32 um. For the same compound, the “rod outer segment shedding distance Ds” value in test [2] was found to be 0.61 ± 0.23 um.
`C[C@@H]1CN(c2c(F)c(N)c3c(=O)c(C(=O)O)cn(C4CC4)c3c2F)C[C@H](C)N1` [Sparfloxacin]: the “rod outer segment growth distance Dg” value in test [1] is 0.89 ± 0.28 um. Besides, the “rod outer segment shedding distance Ds” value in test [2] is -0.63 ± 0.28 um.
On the same counts, the results for `Nc1nc(=O)n([C@@H]2CS[C@H](CO)O2)cc1F` [Emtricitabine] are 0.25 ± 0.26 um and -0.28 ± 0.14 um.
On the same counts, the results for `C[C@]12CCC(=O)C=C1[C@@H]1C[C@@H]1[C@H]1[C@@H]3[C@@H]4C[C@@H]4[C@@]4(CCC(=O)O4)[C@@]3(C)CC[C@@H]12` [Drospirenone] are -2.96 ± 0.37 um and 0.02 ± 0.29 um.
Regarding `CC(C)(C)c1cnc(CSc2cnc(NC(=O)C3CCNCC3)s2)o1`, the “rod outer segment growth distance Dg” value in test [1] is -1.21 ± 0.35 um. Besides, the “rod outer segment shedding distance Ds” value in test [2] is -0.54 ± 0.28 um.
The matching figures for `Cc1c(OCC(F)(F)F)ccnc1C[S+]([O-])c1nc2ccccc2[nH]1` (centres undefined) [Lansoprazole]: -0.44 ± 0.32 um and 0.2 ± 0.22 um.
Consider `CN(C)C(=O)[C@H](O)[C@H](Cc1ccccc1)NC(=O)c1cc2cc(Cl)ccc2[nH]1`, for which the “rod outer segment growth distance Dg” value in test [1] was -2.48 ± 0.23 um. Moreover, the “rod outer segment shedding distance Ds” value in test [2] is -1.1 ± 0.13 um.
As for `Cc1c(Cc2ccc3ccccc3n2)c2cc(F)ccc2n1CC(=O)O`, the “rod outer segment growth distance Dg” value in test [1] was -0.63 ± 0.15 um. In addition, the “rod outer segment shedding distance Ds” value in test [2] is -0.19 ± 0.14 um.
On the same counts, the results for `CCC[C@@H]1C[C@@H](C(=O)N[C@@H]([C@H]2O[C@H](SC)[C@H](O)[C@@H](O)[C@H]2O)[C@H](C)Cl)N(C)C1` [Clindamycin] are 0.88 ± 0.15 um and -0.35 ± 0.12 um.
For the compound `O=C1NCCc2[nH]c(-c3ccncc3)cc21`, the “rod outer segment growth distance Dg” value in test [1] was -0.97 ± 0.16 um. In test [2], the “rod outer segment shedding distance Ds” value was -0.35 ± 0.11 um.
On the same counts, the results for `C=C1CC[C@@H]2[C@](C)(CO)[C@H](O)CC[C@@]2(C)[C@@H]1C/C=C1/C(=O)OC[C@H]1O` [Andrographolide] are 0.8 ± 0.23 um and 0.51 ± 0.38 um.
As to `C[C@H]1C[C@H]2[C@@H]3CCC4=CC(=O)C=C[C@]4(C)[C@H]3C(=O)C[C@]2(C)[C@@]1(O)C(=O)CO` [Meprednisone], the “rod outer segment growth distance Dg” value in test [1] stood at 0.46 ± 0.2 um. The “rod outer segment shedding distance Ds” value in test [2] worked out at 0.1 ± 0.19 um.
Regarding `O=c1[nH]c(=O)n([C@H]2C[C@H](O)[C@@H](CO)O2)cc1I` [Idoxuridine], in test [1], the “rod outer segment growth distance Dg” value is 1.16 ± 0.19 um. Moreover, the “rod outer segment shedding distance Ds” value in test [2] turned out to be 0.54 ± 0.26 um.
On the same counts, the results for `O=c1cc(-c2ccccc2)oc2cc(O)cc(O)c12` [Chrysin] are -0.17 ± 0.37 um and -0.69 ± 0.38 um.
The matching figures for `CCOc1ccccc1N=Nc1c(C)[nH]n(-c2nc(-c3ccccc3)cs2)c1=O`: -0.11 ± 0.29 um and -0.63 ± 0.31 um.
Take `Cc1cnc(-c2cc(N3CCN(C(=O)CCS(C)(=O)=O)CC3)ncc2Cl)c(C)c1`: the “rod outer segment growth distance Dg” value in test [1] is 0.4 ± 0.16 um. Also, in test [2], the “rod outer segment shedding distance Ds” value was -0.12 ± 0.14 um.
For the compound `O=C(O)c1cc(=O)[nH]c(=O)[nH]1` [Orotic acid (6-Carboxyuracil)], the “rod outer segment growth distance Dg” value in test [1] is -3.17 ± 1 um. For the same compound, in test [2], the “rod outer segment shedding distance Ds” value is -2.99 ± 1.3 um.
The matching figures for `CC(=O)c1c(C)c2cnc(Nc3ccc(N4CCNCC4)cn3)nc2n(C2CCCC2)c1=O`: -1.82 ± 0.21 um and -0.54 ± 0.26 um.
On to `C[C@@H](N)[C@H]1CC[C@H](C(=O)Nc2ccncc2)CC1`, for which the “rod outer segment growth distance Dg” value in test [1] was -0.26 ± 0.1 um. Also, the “rod outer segment shedding distance Ds” value in test [2] is -1.19 ± 0.22 um.
On the same counts, the results for `NCCCCCNCC12CC3CC(CC(C3)C1)C2` [IEM 1754 dihydrobroMide] are -0.27 ± 0.19 um and 0.1 ± 0.12 um.
The matching figures for `C[C@@H]1[C@H](O)[C@@H](C)/C=C/C=C/C=C/C=C/C=C/C=C/C=C/[C@H](O[C@@H]2O[C@H](C)[C@@H](O)[C@H](N)[C@@H]2O)C[C@@H]2O[C@](O)(C[C@@H](O)C[C@@H](O)[C@H](O)CC[C@@H](O)C[C@@H](O)CC(=O)O[C@H]1C)C[C@H](O)[C@H]2C(=O)O` [Amphotericin B]: -0.98 ± 0.24 um and 0.18 ± 0.2 um.
In the case of `CN(CCOc1ccc(NS(C)(=O)=O)cc1)CCc1ccc(NS(C)(=O)=O)cc1` [Dofetilide], the “rod outer segment growth distance Dg” value in test [1] was 0.01 ± 0.2 um. Also, in test [2], the “rod outer segment shedding distance Ds” value worked out at 0.28 ± 0.2 um.
`CC1(C)[C@H](C(=O)O)N2C(=O)C[C@H]2S1(=O)=O` [Sulbactam]: in test [1], the “rod outer segment growth distance Dg” value was 0.19 ± 0.19 um. The “rod outer segment shedding distance Ds” value in test [2] was -0.97 ± 0.27 um.
The matching figures for `COc1ccc2c(Oc3ccc(NC(=O)c4c(C)n(CC(C)(C)O)n(-c5ccccc5)c4=O)nc3)ccnc2c1`: -0.54 ± 0.14 um and -0.7 ± 0.13 um.
For `COc1cc2c(cc1O)CC[C@@H]1[C@@H]2CC[C@]2(C)[C@@H](O)CC[C@@H]12` [2-Methoxyestradiol (2-MeOE2)], the “rod outer segment growth distance Dg” value in test [1] is -1.1 ± 0.24 um. Also, the “rod outer segment shedding distance Ds” value in test [2] was determined as 0.19 ± 0.29 um.
On the same counts, the results for `CC(C)(C)C#Cc1cc(N(C(=O)[C@H]2CC[C@H](C)CC2)[C@H]2CC[C@H](O)CC2)c(C(=O)O)s1` [VX-222 (VCH-222, Lomibuvir)] are -0.29 ± 0.16 um and -0.77 ± 0.17 um.
The matching figures for `Cc1csc(-c2nnc(Nc3ccc(Oc4ncccc4-c4ccnc(N)n4)cc3)c3ccccc23)c1`: -1.36 ± 0.3 um and -0.4 ± 0.21 um.
`Cc1nc2n(c(=O)c1CCN1CCC(c3noc4cc(F)ccc34)CC1)CCCC2` [Risperidone]: in test [1], the “rod outer segment growth distance Dg” value is -0.66 ± 0.25 um. In addition, the “rod outer segment shedding distance Ds” value in test [2] is -0.3 ± 0.17 um.
The matching figures for `CCCC(CCC)C(=O)O` [Divalproex Sodium]: 0.68 ± 0.29 um and -0.23 ± 0.15 um.
On the same counts, the results for `O=C(O[C@@H]1Cc2c(O)cc(O)cc2O[C@@H]1c1cc(O)c(O)c(O)c1)c1cc(O)c(O)c(O)c1` [(-)-Epigallocatechin Gallate] are -1.2 ± 0.32 um and -0.98 ± 0.28 um.
The matching figures for `O=C(O)/C=C/c1ccc(Cn2ccnc2)cc1` [Ozagrel]: 1.08 ± 0.26 um and 0.51 ± 0.29 um.
As for `Cc1nc(Nc2ncc(C(=O)Nc3c(C)cccc3Cl)s2)cc(N2CCN(CCO)CC2)n1` [Dasatinib], in test [1], the “rod outer segment growth distance Dg” value was 0 ± 0.22 um. Moreover, in test [2], the “rod outer segment shedding distance Ds” value was -0.74 ± 0.24 um.
